Reference: the supplement of paper PMC10849652
The list shows a part of the results.

Chains of the proteins cited; added tags and fusions are not shown. Lines headed by an entry give the natural chain unless they say otherwise; changes in a name come on top.
UniProt O75822, whole entry, looked up: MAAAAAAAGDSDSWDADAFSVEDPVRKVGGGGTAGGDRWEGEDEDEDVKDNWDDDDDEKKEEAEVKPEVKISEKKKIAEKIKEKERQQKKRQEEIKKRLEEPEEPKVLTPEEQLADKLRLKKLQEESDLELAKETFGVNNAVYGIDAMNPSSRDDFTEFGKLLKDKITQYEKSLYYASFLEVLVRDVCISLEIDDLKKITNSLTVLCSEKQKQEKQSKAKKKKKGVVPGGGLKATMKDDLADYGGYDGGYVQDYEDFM
UniProt Q9NQZ7: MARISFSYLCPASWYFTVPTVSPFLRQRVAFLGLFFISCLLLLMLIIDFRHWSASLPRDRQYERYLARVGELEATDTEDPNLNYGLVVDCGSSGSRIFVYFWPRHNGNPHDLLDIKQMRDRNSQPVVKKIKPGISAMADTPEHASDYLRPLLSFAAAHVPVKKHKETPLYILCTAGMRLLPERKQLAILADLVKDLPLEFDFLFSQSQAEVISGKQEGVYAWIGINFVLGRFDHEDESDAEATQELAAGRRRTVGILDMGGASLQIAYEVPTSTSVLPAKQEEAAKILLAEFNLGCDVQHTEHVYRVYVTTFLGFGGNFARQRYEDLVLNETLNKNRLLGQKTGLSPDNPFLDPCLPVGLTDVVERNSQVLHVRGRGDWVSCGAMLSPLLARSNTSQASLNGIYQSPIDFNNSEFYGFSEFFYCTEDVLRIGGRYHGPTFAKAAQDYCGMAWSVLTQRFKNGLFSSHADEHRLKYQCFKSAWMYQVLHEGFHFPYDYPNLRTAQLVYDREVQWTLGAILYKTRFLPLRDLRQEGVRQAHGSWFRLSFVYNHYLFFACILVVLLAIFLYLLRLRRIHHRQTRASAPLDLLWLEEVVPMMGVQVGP
UniProt O60739, whole entry, looked up: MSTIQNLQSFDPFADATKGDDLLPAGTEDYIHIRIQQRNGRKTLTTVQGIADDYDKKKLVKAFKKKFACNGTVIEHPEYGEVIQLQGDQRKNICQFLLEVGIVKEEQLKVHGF
UniProt P0DPD8: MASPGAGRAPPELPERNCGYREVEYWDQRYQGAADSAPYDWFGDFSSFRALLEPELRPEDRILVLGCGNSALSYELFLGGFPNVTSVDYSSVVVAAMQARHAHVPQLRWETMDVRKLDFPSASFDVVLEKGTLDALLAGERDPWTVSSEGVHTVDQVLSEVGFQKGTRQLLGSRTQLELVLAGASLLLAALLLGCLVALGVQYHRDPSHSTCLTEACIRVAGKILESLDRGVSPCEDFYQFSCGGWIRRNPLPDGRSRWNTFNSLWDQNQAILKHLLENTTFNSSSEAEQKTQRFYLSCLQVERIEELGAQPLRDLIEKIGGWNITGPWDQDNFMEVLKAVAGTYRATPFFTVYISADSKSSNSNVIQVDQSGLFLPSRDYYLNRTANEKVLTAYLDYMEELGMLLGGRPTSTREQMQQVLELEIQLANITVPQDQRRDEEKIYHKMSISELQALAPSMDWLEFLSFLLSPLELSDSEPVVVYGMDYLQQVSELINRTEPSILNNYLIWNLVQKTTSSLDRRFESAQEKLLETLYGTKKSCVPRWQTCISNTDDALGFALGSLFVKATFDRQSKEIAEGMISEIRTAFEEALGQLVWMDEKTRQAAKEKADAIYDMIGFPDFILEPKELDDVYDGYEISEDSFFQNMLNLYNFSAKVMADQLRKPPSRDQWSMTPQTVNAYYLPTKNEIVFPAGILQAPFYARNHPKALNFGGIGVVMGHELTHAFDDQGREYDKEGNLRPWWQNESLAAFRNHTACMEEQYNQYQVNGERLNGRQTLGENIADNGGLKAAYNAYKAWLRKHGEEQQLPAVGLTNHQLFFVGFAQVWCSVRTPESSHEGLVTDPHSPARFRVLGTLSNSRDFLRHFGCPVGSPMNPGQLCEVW
UniProt Q9Y6B2: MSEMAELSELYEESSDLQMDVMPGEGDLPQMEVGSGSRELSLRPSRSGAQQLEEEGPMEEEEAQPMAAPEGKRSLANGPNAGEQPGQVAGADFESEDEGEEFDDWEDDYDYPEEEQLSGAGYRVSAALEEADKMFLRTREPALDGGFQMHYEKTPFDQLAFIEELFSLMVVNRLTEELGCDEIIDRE
UniProt Q9BUP0: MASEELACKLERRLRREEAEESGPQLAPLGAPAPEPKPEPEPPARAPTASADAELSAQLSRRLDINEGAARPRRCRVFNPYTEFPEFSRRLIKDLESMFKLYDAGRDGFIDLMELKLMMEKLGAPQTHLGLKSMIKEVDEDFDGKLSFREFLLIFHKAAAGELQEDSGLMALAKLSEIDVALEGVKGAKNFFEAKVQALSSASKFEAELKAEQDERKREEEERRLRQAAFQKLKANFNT
UniProt P19419: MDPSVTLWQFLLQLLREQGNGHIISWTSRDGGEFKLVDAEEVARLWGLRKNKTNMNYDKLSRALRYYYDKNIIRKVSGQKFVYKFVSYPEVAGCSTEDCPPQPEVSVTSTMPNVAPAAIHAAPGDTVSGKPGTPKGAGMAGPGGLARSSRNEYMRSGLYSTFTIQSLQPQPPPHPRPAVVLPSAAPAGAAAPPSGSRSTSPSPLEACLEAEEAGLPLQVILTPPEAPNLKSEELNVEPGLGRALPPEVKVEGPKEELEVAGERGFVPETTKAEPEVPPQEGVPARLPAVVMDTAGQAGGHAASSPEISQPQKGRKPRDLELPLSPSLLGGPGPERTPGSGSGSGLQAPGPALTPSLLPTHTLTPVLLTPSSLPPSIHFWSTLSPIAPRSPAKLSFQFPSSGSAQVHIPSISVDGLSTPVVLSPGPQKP
UniProt Q04637, whole entry, looked up: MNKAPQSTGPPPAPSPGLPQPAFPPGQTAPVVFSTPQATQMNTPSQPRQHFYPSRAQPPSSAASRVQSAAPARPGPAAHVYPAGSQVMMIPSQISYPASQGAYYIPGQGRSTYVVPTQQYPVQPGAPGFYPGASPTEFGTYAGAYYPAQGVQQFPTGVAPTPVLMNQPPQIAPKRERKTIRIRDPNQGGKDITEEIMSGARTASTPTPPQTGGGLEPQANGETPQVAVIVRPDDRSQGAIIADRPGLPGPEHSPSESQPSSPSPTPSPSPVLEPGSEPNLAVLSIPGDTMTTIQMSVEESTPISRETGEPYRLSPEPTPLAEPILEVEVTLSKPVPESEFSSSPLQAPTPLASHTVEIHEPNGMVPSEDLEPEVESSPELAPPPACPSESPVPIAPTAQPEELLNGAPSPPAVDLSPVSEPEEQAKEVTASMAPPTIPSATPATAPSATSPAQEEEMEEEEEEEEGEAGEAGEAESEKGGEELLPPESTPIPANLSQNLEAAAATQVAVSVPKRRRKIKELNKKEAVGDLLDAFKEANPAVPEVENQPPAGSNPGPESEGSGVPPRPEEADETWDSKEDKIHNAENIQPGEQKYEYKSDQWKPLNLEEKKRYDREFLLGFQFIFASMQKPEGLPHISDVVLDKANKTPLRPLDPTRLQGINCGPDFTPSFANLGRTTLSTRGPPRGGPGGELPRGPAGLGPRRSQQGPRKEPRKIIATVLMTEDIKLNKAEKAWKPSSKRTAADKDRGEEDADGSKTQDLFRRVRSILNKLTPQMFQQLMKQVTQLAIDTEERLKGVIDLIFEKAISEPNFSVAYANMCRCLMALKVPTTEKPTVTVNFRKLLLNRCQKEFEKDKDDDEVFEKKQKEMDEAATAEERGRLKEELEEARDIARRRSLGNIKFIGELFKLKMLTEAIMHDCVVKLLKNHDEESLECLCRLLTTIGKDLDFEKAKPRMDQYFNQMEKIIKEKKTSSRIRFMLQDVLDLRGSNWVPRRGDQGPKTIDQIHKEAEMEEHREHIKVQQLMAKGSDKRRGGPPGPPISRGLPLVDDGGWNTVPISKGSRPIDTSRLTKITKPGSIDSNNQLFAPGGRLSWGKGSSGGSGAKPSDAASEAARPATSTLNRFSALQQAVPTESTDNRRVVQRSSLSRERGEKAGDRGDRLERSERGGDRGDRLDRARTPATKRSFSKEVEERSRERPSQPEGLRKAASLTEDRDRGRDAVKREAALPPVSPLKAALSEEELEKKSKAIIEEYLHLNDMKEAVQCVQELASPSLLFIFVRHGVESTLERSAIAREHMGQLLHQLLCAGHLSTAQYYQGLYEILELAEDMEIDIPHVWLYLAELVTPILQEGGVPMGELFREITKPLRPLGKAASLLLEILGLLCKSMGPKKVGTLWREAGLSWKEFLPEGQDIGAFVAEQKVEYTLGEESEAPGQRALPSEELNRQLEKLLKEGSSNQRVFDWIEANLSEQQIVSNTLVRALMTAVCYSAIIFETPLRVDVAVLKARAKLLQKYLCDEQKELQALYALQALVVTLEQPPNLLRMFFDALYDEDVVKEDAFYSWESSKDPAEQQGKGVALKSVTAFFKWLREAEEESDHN
UniProt Q12805: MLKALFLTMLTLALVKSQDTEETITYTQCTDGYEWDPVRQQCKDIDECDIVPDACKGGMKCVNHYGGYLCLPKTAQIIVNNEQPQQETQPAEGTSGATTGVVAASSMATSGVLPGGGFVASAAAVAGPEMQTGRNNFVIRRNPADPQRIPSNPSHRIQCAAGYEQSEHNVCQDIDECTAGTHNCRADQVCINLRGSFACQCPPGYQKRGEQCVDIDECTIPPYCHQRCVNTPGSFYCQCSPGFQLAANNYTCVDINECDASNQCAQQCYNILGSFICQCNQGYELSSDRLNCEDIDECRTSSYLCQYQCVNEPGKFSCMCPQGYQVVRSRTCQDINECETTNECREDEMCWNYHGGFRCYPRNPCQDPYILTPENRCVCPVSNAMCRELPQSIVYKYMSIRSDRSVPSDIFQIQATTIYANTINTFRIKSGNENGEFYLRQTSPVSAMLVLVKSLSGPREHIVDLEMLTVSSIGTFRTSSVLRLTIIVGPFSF
UniProt Q9H777: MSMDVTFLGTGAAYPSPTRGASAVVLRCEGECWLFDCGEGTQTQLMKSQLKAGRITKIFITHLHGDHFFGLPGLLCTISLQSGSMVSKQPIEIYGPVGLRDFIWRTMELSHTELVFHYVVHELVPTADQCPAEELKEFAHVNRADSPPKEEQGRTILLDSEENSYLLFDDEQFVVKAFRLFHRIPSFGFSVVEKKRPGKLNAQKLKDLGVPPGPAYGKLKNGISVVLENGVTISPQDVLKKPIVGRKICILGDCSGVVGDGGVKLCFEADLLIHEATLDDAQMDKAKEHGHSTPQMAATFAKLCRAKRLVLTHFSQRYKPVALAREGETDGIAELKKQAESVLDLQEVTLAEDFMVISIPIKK
UniProt Q9H0I2: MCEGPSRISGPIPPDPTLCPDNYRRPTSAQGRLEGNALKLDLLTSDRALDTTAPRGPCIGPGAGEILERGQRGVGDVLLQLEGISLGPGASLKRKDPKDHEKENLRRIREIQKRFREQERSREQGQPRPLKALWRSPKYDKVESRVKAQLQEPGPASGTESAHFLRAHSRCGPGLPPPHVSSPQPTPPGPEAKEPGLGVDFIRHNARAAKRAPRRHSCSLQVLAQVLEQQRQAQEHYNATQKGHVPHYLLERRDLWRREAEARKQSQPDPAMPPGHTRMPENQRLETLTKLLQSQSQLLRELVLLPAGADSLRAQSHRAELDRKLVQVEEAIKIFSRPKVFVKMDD
UniProt Q9Y3B6: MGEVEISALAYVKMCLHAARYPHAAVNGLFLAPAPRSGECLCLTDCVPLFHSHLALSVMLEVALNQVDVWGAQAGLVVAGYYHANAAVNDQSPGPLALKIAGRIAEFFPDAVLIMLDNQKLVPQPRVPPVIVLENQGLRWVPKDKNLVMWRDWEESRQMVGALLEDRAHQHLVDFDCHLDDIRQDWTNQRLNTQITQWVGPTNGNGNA
UniProt P32519: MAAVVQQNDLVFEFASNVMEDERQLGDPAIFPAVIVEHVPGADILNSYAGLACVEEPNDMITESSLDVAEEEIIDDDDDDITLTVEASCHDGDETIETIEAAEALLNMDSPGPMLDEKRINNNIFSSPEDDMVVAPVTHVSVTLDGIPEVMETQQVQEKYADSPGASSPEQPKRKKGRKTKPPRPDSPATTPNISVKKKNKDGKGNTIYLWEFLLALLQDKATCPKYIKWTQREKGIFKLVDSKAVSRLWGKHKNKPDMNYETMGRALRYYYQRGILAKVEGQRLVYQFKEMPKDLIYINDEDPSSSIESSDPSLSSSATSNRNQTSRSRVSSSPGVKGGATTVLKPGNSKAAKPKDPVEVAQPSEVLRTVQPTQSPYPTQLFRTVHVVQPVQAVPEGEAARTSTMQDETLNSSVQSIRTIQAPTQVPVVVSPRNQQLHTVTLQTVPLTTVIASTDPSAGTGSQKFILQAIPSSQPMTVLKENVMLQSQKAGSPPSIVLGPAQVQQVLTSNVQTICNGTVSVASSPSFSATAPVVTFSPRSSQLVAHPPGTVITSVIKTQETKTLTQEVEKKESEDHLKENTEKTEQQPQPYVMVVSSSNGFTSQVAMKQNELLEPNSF

Compound: Cc1ccc(NC(=O)c2ccc(CN3CC[C@H](N(C)C)C3)c(C(F)(F)F)c2)cc1Nc1nccc(-c2cncnc2)n1 [bafetinib]
Assay: log2 fold change, soluble protein after heating vs DMSO (PISA); higher = thermal stabilisation; K562 cells, 10 uM, 30 min; active = over 0.2 and 3.5 SD of the protein, either way, in both replicates (recomputed)
Outline: (§1)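 Aliquots of K562 cells (2×10^6 cells/mL) treated with 10 μM compound for 30 min were heated for 3 min over 48°C-58°C. After pooling and extraction in PBS with 0.5% NP-40 at 4°C, soluble protein from a 21,000xg, 90 min spin was quantified by TMTpro 16plex LC-MS/MS with channel sums equalised. Thermal stability is expressed against control samples, from duplicates, as a log2 fold change.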

log2 fold change, inactive:
EIF3J isoform 2 (UniProt O75822) -0.033
ENTPD7 (UniProt Q9NQZ7) -0.165
EIF5A2 (UniProt Q9GZV4) 0.002
EIF1B (UniProt O60739) -0.127
EEF1AKMT2 (UniProt Q5JPI9) 0.234
EEF1AKMT4-ECE2 (UniProt P0DPD8) -0.245

Compound: Cc1cccc(CC(=O)N2CCc3c2ccc(-c2cn(C)c4ncnc(N)c24)c3F)n1
Assay: as above
Outline: as §1

log2 fold change, inactive:
EID1 (UniProt Q9Y6B2) -0.438
ENAH (UniProt Q8N8S7) -0.194
EFHD1 (UniProt Q9BUP0) -0.055
ELK1 (UniProt P19419) 0.268
EIF4H isoform 2 (UniProt Q15056) -0.094
EP400 (UniProt Q96L91) -0.106
EIF4G1 (UniProt Q04637) 0.017
EEF2K (UniProt O00418) 0.007
EFEMP1 (UniProt Q12805) -0.036
EFCAB2 (UniProt Q5VUJ9) -0.025
ELAC1 (UniProt Q9H777) 0.124
ENKD1 (UniProt Q9H0I2) 0.026
EHBP1 (UniProt Q8NDI1) -0.154
ELOA (UniProt Q14241) -0.117

Compound: Cc1cn(-c2cc(NC(=O)c3ccc(C)c(Nc4nccc(-c5cccnc5)n4)c3)cc(C(F)(F)F)c2)cn1 [nilotinib]
Assay: as above
Outline: as §1

log2 fold change, inactive:
EID1 (UniProt Q9Y6B2) -0.022
EMC9 (UniProt Q9Y3B6) -0.105
EIF3J isoform 2 (UniProt O75822) -0.101
EFHD1 (UniProt Q9BUP0) -0.034
EFR3A (UniProt Q14156) 0.163
ENTPD7 (UniProt Q9NQZ7) -0.104
ELF1 (UniProt P32519) 0.096
ELAC1 (UniProt Q9H777) 0.145
EPB41, A0A2R8Y783 0.033

Compound: Cc1nc(Nc2n[nH]c3c2CN(C(=O)N[C@H](CN(C)C)c2ccccc2)C3(C)C)c2sccc2n1
Assay: as above
Outline: as §1

log2 fold change, inactive:
EID1 (UniProt Q9Y6B2) -0.084
EMC9 (UniProt Q9Y3B6) -0.13
EIF3J isoform 2 (UniProt O75822) -0.016
EFHD1 (UniProt Q9BUP0) 0.403
EFR3A (UniProt Q14156) -0.004
ENTPD7 (UniProt Q9NQZ7) -0.17
ELF1 (UniProt P32519) -0.028
ELAC1 (UniProt Q9H777) -0.111
EPB41, A0A2R8Y783 -0.003
